Consider 29 compounds from patent US20250075147A1, “FRAGRANCE AND FLAVOR COMPOSITIONS COMPRISING NEW FLAVOR AND FRAGRANCE INGREDIENTS” (priority 2023, published 2025).

In series [1] the test system is odor evaluation panel. The series is described as follows: Odor evaluation panel rating of odorants by Rate-All-That-Apply (RATA) method with 55-word odor lexicon, plus intensity and pleasantness. The arrangement: species or system human. Particulars: for Floral: mean panelist score for odor label floral (RATA); for Fruity: mean panelist score for odor label fruity (RATA); for Spicy: mean panelist score for odor label spicy (RATA); for Sweet: mean panelist score for odor label sweet (RATA); for Pleasantness: mean panelist score for odor pleasantness.

The nature of series [2]: Evaluation by trained and/or certified flavor or fragrance chemists or master perfumers; categorization by commercial prospect. Conditions: for Rating: category of commercial prospect, (A) highest > (B) > (C) > (D) lowest, (E) requires further study; for Rating (category of commercial prospect): evaluation by trained flavor or fragrance chemists or master perfumers.

With `CC1(C)C[C@@H]1C(N)=O` [Compound 449, (1S)-2,2-dimethylcyclopropane-1-carboxamide], in series [1], the Floral is listed as 0.194, the Fruity stood at 0.871, the Spicy was 0 and the Sweet is 1.419. Further, the Pleasantness in series [1] was 5.623. Also, the Rating entry in series [2] is “(D)”.

`CC(C)=CC=C(C)C` [Compound 600, 2,5-dimethylhexa-2,4-diene]: in series [1], the Floral amounted to 0.156, the Fruity is listed as 0.281, the Spicy was 0.094 and the Sweet is given as 0.5. Further, the Pleasantness in series [1] came out at 4.484. Besides, the “Rating (category of commercial prospect)” value in series [2] was “(D)”.

For the compound `CCN(CCO)c1cccc(C)c1` [Compound 875, 2-(N-ethyl-3-methylanilino)ethanol], in series [1], the Floral was determined as 0.533, the Fruity was 0.433, the Spicy is given as 0 and the Sweet is 0.867. In addition, the Pleasantness in series [1] is reported as 5.147. Besides, the “Rating (category of commercial prospect)” value in series [2] is “(D)”.

As for `Cc1ccc2[nH]c(C)cc2c1` [Compound 586, 2,5-dimethyl-1H-indole], in series [1], the Floral is 0.086, the Fruity was 0, the Spicy is 0.143 and the Sweet was found to be 0.2. The Pleasantness in series [1] is 4.226. Moreover, in series [2], the “Rating (category of commercial prospect)” value is on record as “(D)”.

Take `O=C1CC2CC1C1CCCC21` (centres unmarked) [Compound 434, tricyclo[5.2.1.02,6]decan-8-one]: in series [1], the Floral was 0.4, the Fruity amounted to 0.6, the Spicy was 0.171 and the Sweet is 1.429. The Pleasantness in series [1] turned out to be 6.346. Besides, the Rating entry in series [2] is listed as “(D)”.

With `CC1CCCC(C)C1O` (centres unmarked) [Compound 905, 2,6-dimethylcyclohexan-1-ol], in series [1], the Floral came out at 0.062, the Fruity worked out at 0, the Spicy is 0.094 and the Sweet was found to be 0.344. In series [1], the Pleasantness came out at 4.206. The “Rating (category of commercial prospect)” value in series [2] is given as “(C)”.

As to `C=CCCCCCCC=C` [Compound 473, deca-1,9-diene], in series [1], the Floral was found to be 0.167, the Fruity turned out to be 0.111, the Spicy is 0 and the Sweet was found to be 0.222. In series [2], the Rating entry is “(E)”.

With `c1ccc(-c2ccncc2)nc1` [Compound 960, 2-pyridin-4-ylpyridine], in series [1], the Floral was 0.125, the Fruity is 0, the Spicy amounted to 0.281 and the Sweet amounted to 0.25. The Pleasantness in series [1] is 3.472. In addition, the “Rating (category of commercial prospect)” value in series [2] is recorded as “(D)”.

Consider `SCCOCCOCCS` [Compound 194, 2-[2-(2-sulfanylethoxy)ethoxy]ethanethiol], for which, in series [1], the Floral is on record as 0.056, the Fruity came to 0, the Spicy worked out at 0.083 and the Sweet is 0. Moreover, the Rating entry in series [2] is reported as “(D)”.

In the case of `O/N=C\c1cccs1` [Compound 312, (NZ)-N-(thiophen-2-ylmethylidene)hydroxylamine], in series [1], the Floral turned out to be 0.355, the Fruity stood at 0, the Spicy is on record as 0.161 and the Sweet worked out at 0.548. Further, in series [1], the Pleasantness amounted to 4.961. Besides, in series [2], the Rating result is “(D)”.

`CC(=O)OCCN(C)C` [Compound 370, 2-(dimethylamino)ethyl acetate]: in series [1], the Floral was 0, the Fruity amounted to 0, the Spicy worked out at 0.028 and the Sweet is recorded as 0. Besides, in series [2], the Rating entry is “(D)”.

Consider `C1=CCC2CC=CC2C1` (centres unmarked) [Compound 149, 3a,4,7,7a-tetrahydro-1H-indene], for which, in series [1], the Floral was 0.2, the Fruity was found to be 0.029, the Spicy was 0.114 and the Sweet is 0.171. In addition, the Pleasantness in series [1] came out at 4.943. Also, the Rating entry in series [2] is recorded as “(D)”.

Consider `CN(C)C#N` [Compound 415, dimethylcyanamide], for which, in series [1], the Floral amounted to 0.531, the Fruity came to 0.5, the Spicy was 0.438 and the Sweet turned out to be 1.094. Besides, in series [1], the Pleasantness is listed as 4.612. Further, the Rating entry in series [2] was “(D)”.

On to `CC(=O)CC(=O)N(C)C` [Compound 181, N,N-dimethyl-3-oxobutanamide], for which, in series [1], the Floral came out at 0.182, the Fruity stood at 0.212, the Spicy worked out at 0.091 and the Sweet turned out to be 0.455. The Pleasantness in series [1] was 4.176. Further, in series [2], the Rating entry is “(D)”.

Take `Cn1ccnc1C=O` [Compound 146, 1-methylimidazole-2-carbaldehyde]: in series [1], the Floral is reported as 0.242, the Fruity was 0.061, the Spicy was found to be 0.242 and the Sweet is on record as 0.485. In series [1], the Pleasantness was 4.824. For the same compound, the Rating entry in series [2] is on record as “(D)”.

With `CN1CCCC1CCO` (centres unmarked) [Compound 625, 2-(1-methylpyrrolidin-2-yl)ethanol], in series [1], the Floral worked out at 0.061, the Fruity came out at 0, the Spicy is given as 0.061 and the Sweet amounted to 0.152. The Pleasantness in series [1] was determined as 5.952. The “Rating (category of commercial prospect)” value in series [2] is “(D)”.

Consider `CCC(O)(CC)CC` [Compound 340, 3-ethylpentan-3-ol], for which, in series [1], the Floral is listed as 0.031, the Fruity turned out to be 0.156, the Spicy is on record as 0 and the Sweet is on record as 0.531. For the same compound, the Pleasantness in series [1] is reported as 5.025. The Rating result in series [2] is “(B)”.

In the case of `CCOC(=O)c1csc(C)n1` [Compound 607, ethyl 2-methyl-1,3-thiazole-4-carboxylate], in series [1], the Floral was determined as 0.086, the Fruity came to 0, the Spicy is 0.343 and the Sweet is given as 0.143. Besides, the Pleasantness in series [1] worked out at 4.689. Also, in series [2], the “Rating (category of commercial prospect)” value was “(D)”.

With `N#CC1CC2C=CC1C2` (centres unmarked) [Compound 294, bicyclo[2.2.1]hept-5-ene-2-carbonitrile], in series [1], the Floral was found to be 0.583, the Fruity stood at 0.75, the Spicy is reported as 0.056 and the Sweet is on record as 0.861. The Rating entry in series [2] is given as “(D)”.

Take `CC(C)OC(=O)C1CCCCC1` [Compound 392, propan-2-yl cyclohexanecarboxylate]: in series [1], the Floral was determined as 0.25, the Fruity was 2.844, the Spicy turned out to be 0.062 and the Sweet is on record as 2.156. In series [1], the Pleasantness was 6.784. The Rating entry in series [2] was “(D)”.

In the case of `CCOC(=O)C#CC(=O)OCC` [Compound 63, diethyl but-2-ynedioate], in series [1], the Floral is 0.281, the Fruity worked out at 0.594, the Spicy came out at 0.469 and the Sweet turned out to be 0.75. The Pleasantness in series [1] is recorded as 3.903. Moreover, the Rating result in series [2] is “(B)”.

As for `c1ccc2[nH]ncc2c1` [Compound 511, 1H-indazole], in series [1], the Floral was 0.156, the Spicy is on record as 0.25, the Sweet is 0.625 and the Pleasantness was 4.728. The Rating result in series [2] is listed as “(D)”.

On to `CCC(=O)C(C)CN(C)C` (centres unmarked) [Compound 92, 1-(dimethylamino)-2-methylpentan-3-one], for which, in series [1], the Floral was determined as 0.125, the Fruity was determined as 0, the Spicy stood at 0.25 and the Sweet amounted to 0.312. Besides, in series [1], the Pleasantness turned out to be 3.972. In addition, the Rating entry in series [2] is “(D)”.

In the case of `COc1ccc(OCC#N)cc1` [Compound 531, 2-(4-methoxyphenoxy)acetonitrile], in series [1], the Floral was 0.031, the Fruity stood at 0.031, the Spicy is on record as 0.219 and the Sweet stood at 0.344. For the same compound, the Pleasantness in series [1] is recorded as 4.291. Moreover, in series [2], the Rating entry was “(C)”.

`CCCC1=CC(=O)OC1O` (centres unmarked) [Compound 322, 2-hydroxy-3-propyl-2H-furan-5-one]: in series [1], the Floral was found to be 0, the Fruity is 0.056, the Spicy came out at 0 and the Sweet came out at 0.444. Moreover, the Rating result in series [2] is given as “(A)”.

On to `CC1=CC2C3CC(C=C3C)C2C1` (centres unmarked) [Compound 377, 4,9-dimethyltricyclo[5.2.1.02,6]deca-3,8-diene], for which, in series [1], the Floral was 0.129, the Fruity came to 0, the Spicy was 0.484 and the Sweet is recorded as 0.903. In series [1], the Pleasantness came to 4.539. Further, in series [2], the Rating entry is given as “(A)”.

As for `COC(=O)C1(C(=O)OC)CCC1` [Compound 491, dimethyl cyclobutane-1,1-dicarboxylate], in series [1], the Floral came to 0, the Fruity stood at 0, the Spicy was 0.083 and the Sweet is given as 0. In addition, the Rating result in series [2] is “(D)”.

On to `CCNCc1ccncc1` [Compound 461, N-(pyridin-4-ylmethyl)ethanamine], for which, in series [1], the Floral was determined as 0, the Fruity worked out at 0, the Spicy is listed as 0.156 and the Sweet was 0.094. Also, the Pleasantness in series [1] is recorded as 3.594. Further, in series [2], the Rating entry is recorded as “(D)”.

`CC(=O)OC1=CCCCC1` [Compound 699, cyclohexen-1-yl acetate]: in series [1], the Floral amounted to 0.771, the Fruity worked out at 1.486, the Spicy was 0.171 and the Sweet is listed as 1.571. In addition, the Pleasantness in series [1] is listed as 5.903. Besides, in series [2], the “Rating (category of commercial prospect)” value is recorded as “(A)”.
